# Assay results reported in article PMC10448219.
# Key:
# [1] = biological target: T1, Flag-tagged zebrafish hif-1αa (zebrafish) (UniProt F1QNB9); experiment: co-IP; HEK293T cells co-transfected with Myc-sirt7 and Flag-hif-α (or Flag empty vector), lysed in RIPA buffer after 24 h; anti-Flag antibody-conjugated agarose beads precipitate, Western blot detects; also done with cells cultured under normoxia or hypoxia for 4 h (interaction enhanced under hypoxia)
# T1 sequence: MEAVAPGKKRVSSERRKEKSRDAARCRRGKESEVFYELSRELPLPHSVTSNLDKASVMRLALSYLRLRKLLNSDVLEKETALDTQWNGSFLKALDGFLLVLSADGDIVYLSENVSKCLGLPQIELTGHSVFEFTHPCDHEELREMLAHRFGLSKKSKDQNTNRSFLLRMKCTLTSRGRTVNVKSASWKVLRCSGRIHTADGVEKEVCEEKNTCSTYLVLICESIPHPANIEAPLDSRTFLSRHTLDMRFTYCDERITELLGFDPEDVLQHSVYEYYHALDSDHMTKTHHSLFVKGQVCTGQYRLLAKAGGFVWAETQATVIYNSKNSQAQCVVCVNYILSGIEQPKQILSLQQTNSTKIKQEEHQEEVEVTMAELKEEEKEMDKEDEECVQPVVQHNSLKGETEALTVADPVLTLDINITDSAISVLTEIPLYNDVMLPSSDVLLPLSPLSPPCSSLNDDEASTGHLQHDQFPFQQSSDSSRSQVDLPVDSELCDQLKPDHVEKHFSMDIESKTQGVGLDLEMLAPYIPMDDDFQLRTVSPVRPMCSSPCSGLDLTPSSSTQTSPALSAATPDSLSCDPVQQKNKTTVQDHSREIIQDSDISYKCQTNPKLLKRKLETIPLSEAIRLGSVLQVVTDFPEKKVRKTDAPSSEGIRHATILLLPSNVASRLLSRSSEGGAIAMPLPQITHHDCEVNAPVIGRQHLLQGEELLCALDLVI
# [2] = biological target: T2, Flag-tagged zebrafish hif-1αb (zebrafish) (UniProt Q6EHI4); experiment: as above
# T2 sequence: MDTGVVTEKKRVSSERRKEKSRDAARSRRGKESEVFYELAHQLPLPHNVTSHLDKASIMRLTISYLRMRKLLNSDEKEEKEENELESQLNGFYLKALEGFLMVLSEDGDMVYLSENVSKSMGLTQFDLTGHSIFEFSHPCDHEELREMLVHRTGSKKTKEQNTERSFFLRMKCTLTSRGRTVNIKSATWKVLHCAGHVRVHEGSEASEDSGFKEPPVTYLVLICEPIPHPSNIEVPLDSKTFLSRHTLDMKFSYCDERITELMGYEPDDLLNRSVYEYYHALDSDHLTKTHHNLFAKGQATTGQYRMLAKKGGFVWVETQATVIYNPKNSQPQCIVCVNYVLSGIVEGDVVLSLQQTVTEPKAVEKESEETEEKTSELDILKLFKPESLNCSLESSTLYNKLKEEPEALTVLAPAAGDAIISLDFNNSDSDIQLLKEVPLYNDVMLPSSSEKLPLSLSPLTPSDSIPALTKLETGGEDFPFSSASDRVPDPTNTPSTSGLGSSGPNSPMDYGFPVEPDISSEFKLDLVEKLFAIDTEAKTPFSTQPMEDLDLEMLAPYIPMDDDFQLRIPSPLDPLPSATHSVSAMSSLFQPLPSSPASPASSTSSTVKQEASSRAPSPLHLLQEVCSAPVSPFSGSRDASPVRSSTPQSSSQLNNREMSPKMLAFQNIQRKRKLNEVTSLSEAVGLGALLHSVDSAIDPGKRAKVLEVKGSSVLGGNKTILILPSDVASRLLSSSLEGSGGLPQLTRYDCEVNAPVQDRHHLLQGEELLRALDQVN
substance,measurement,setting,value
Myc-tagged zebrafish sirt7 (enzyme),binding,[1],binds
same,binding,[2],binds

# No constants are given. Whether binding was seen depends on the method and setting. In cells and extracts the contact can be indirect. Binding calls can cover weak binding; strength is not graded here. Sequences can lack the tags named with a protein.
